{"source": "patent US5071835A", "about": "(Bio-Mega Inc., priority 1989, dated 1991)", "test": "general procedure: peptide synthesis; Boc-Phe-CH2-PAB resin", "details": "whole synthesis, analytical HPLC, trifluoroacetate salt", "note": "HELM strings list residues between dots; [ac] is acetyl, [am] amide, other brackets name non-standard units.", "data": [{"substance": "PEPTIDE1{[ac].F.T.L.D.A.D.F}$$$$V2.0", "values": [{"measurement": "final HPLC purity", "value": "at least 95% homogeneous"}]}]}
